Source: PubChem BioAssay AID1347076 (National Center for Advancing Translational Sciences (NCATS), 2019)
Hit rate of the full screen: of about 400,000 compounds, about 13,000 (3.2%) were called active. Inconclusive results, whose numbers are uncertain, are shown with a selection of clear calls. The call rests on the fitted dose curve; in most records, active means well fitted cell-killing curve with a large enough effect; inconclusive means small, poorly fitted or top-dose-only effect, or effect the other way; inactive means flat fitted curve, though single readings scatter. Potencies of inconclusive entries are doubtful fits and often do not repeat.
On the % scale 0 is the no-effect control and ±100 the full control effect; potency means the concentration at half of the fitted maximal effect.

Assay: qHTS assay for MDR1-selective chemotherapeutics: Primary screen using the drug-selected MDR subline cells KB-V1; further: nearly all actives have a fitted effect of over 60% in size
Settings: KB-V1 MDR cells viability, CellTiter-Glo, 72 h; activity change, negative = cytotoxicity: at 46.1 µM (top of the series)
Outline: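 Cells of the MDR subline KB-V1 are plated, dosed with compound at multiple concentrations, and incubated 72 h at 37 degrees C; CellTiter-Glo is then added and luminescence read after 10 min.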
For O=C(c1cc(C2CC2)nn1-c1ccccc1)N1CCN(c2ccccn2)CC1, the Potency was inconclusive: 23.1 µM [cytotoxic, single point]. In the case of COc1ccc2c(ccc[n+]2CC(=O)c2ccc(C)cc2)c1, the “activity change, negative = cytotoxicity” value is reported as inactive: 0%. In the case of Cc1nc2c(C(=O)NCCc3ccc(Cl)cc3)c[nH]n2c(=O)c1Cc1ccccc1F, the Potency is reported as inconclusive: 7.31 µM [rising, partial curve]. With CCC(C)Sc1cccc(-c2nc3ccc(Cl)cn3c2NCc2ccccc2)c1 (centres undefined) the Potency was inconclusive: 11.6 µM [cytotoxic, partial curve, poor fit]. With CCOc1cc(N2CCOCC2)c(OCC)cc1NC(=O)[C@H](C)N1C(=O)C2CC=CCC2C1=O (some centres undefined) the Potency was inconclusive: 11.6 µM [cytotoxic, partial curve, poor fit]. In the case of CCOC(=O)/C(=N/Nc1ccccc1)c1csc(Nc2ccccc2)n1, the Potency is reported as inconclusive: 25.9 µM [cytotoxic, single point]. With CCOc1ccccc1C(C(=O)NC1CCCCC1)N(C(=O)c1csnn1)C1CC1 (centres undefined) the “activity change, negative = cytotoxicity” value was inactive: -13.2%. For CCCc1c(-c2ccccc2F)ncn1Cc1ccccc1OC, the Potency was active: 20.6 µM. With O=C(CNS(=O)(=O)c1ccc(Br)cc1)NCc1ccncc1 the “activity change, negative = cytotoxicity” value was inactive: 11.9%. For Fc1ccc2cnc(-c3ccccc3F)cc2c1, the “activity change, negative = cytotoxicity” value was inactive: 6.68%. With COc1cc(/C=N/NC(=O)c2ccoc2C)ccc1O the Potency was inconclusive: 29.1 µM [cytotoxic, single point]. With CCCC(C(=O)Nc1ccc(S(=O)(=O)N2CCCC2)cc1)c1ccccc1 (centres undefined) the Potency was inconclusive: 18.4 µM [cytotoxic, partial curve, poor fit]. For COc1ccc(NC(=O)Cc2c(F)c(F)c(F)c(F)c2F)cc1OC, the “activity change, negative = cytotoxicity” value was inactive: 9.94%. For COc1cc2c(-c3ccc(C)cc3)nc3c(c(C)nn3-c3ccccc3)c2cc1OC, the Potency was inconclusive: 13 µM [rising, partial curve]. In the case of COc1ccccc1N(CC(=O)NC(C)(C)C)C(=O)C1CSC(=O)C1 (centres undefined), the “activity change, negative = cytotoxicity” value is reported as inactive: -19.3%. With COc1ccc(-c2nnc(SCC(=O)Nc3ccc(C)cc3)n2C)cc1 the “activity change, negative = cytotoxicity” value was inactive: -5.24%. For CCc1ccccc1NC(=O)C1COc2ccccc2C1 (centres undefined), the Potency was inconclusive: 6.51 µM [rising, full curve]. In the case of CC(C)Oc1ccc(CNC(=O)c2cnc3sc(N4CCCCC4)nn3c2=O)cc1, the activity change, negative = cytotoxicity is reported as inconclusive: 0%. In the case of COc1ccc(Oc2ccc3c(C(F)(F)F)cc(C(F)(F)F)nc3n2)cc1, the Potency is reported as active: 16.4 µM. With COc1ccc(OC)c(Nc2cc(C)nc3ccccc23)c1 the Potency was active: 18.4 µM. For N#C/C(=C\c1ccccc1)C(=O)Nc1sc2c(c1C(N)=O)CCC2, the “activity change, negative = cytotoxicity” value was inactive: 9.8%. With CCOC(=O)c1oc2ccc(S(=O)(=O)n3nc(-c4cc(OC)cc(OC)c4)cc3N)cc2c1C the “activity change, negative = cytotoxicity” value was inactive: -15.4%. For COC(=O)Cc1ccc(OCc2ccc(Cl)nc2)cc1, the Potency was inconclusive: 18.4 µM [cytotoxic, single point]. For COc1ccc(OC)c(S(=O)(=O)Nc2cc(Cl)cc(Cl)c2)c1, the Potency was inconclusive: 16.4 µM [cytotoxic, single point]. For NCCCNc1ccc([N+](=O)[O-])cc1C(F)(F)F, the “activity change, negative = cytotoxicity” value was inactive: -3.29%. In the case of O=C(c1cc2c(s1)CCCC2)N1CCN(S(=O)(=O)c2ccccc2)CC1, the Potency is reported as inconclusive: 7.31 µM [cytotoxic, partial curve, poor fit]. For c1ccc(-c2nnc(SCc3nc4ccccc4[nH]3)n2Cc2ccco2)nc1, the Potency was active: 2.59 µM. In the case of CCCc1cc(C(=O)N2CCN(S(=O)(=O)c3ccc(OC)c(OC)c3)CC2)cs1, the Potency is reported as active: 5.17 µM. In the case of O=c1/c(=C\c2cccc(O)c2)sc2nc(-c3ccccc3)c(-c3ccccc3)n12, the “activity change, negative = cytotoxicity” value is reported as inactive: 1.39%. In the case of CCc1nc2ccc(C(=O)NCCCn3ccnc3)cn2c1N(C)Cc1ccc(N(C)C)cc1, the “activity change, negative = cytotoxicity” value is reported as inactive: 3.14%. With CC(=O)c1ccc(OCC(O)CN2C(C)(C)CC(O)CC2(C)C)cc1 (centres undefined) the Potency was inconclusive: 0.0073 µM [cytotoxic, full curve]. With CCCCCC(=O)N1CCN(S(=O)(=O)c2ccc3c(c2)OCCO3)CC1 the Potency was inconclusive: 29.1 µM [cytotoxic, single point]. With Cc1ccccc1-n1ncc2c(SCC(=O)NC3CCCC3)ncnc21 the Potency was inconclusive: 7.31 µM [cytotoxic, partial curve]. With CCc1ccc(Sc2cc(C(=O)NCCCOC(C)C)c3ccccc3n2)cc1 the “activity change, negative = cytotoxicity” value was inactive: -5.59%. With CCCOC(=O)c1cc(=O)[nH]c2ccccc12 the Potency was inconclusive: 29.1 µM [cytotoxic, single point]. In the case of O=C(NC(c1ccc(Cl)cc1)c1cc(Cl)c2cccnc2c1O)c1cccnc1 (centres undefined), the Potency is reported as inconclusive: 11.6 µM [cytotoxic, partial curve, poor fit]. With CC(C(=O)NC1CCCC1)N(C(=O)c1ccc(-c2ccccc2)[nH]1)c1ccccc1F (centres undefined) the Potency was inconclusive: 18.4 µM [cytotoxic, partial curve, poor fit]. In the case of COc1ccc(NC2=Nc3cccc4cccc2c34)cc1, the Potency is reported as inconclusive: 9.2 µM [cytotoxic, partial curve]. In the case of CCOC(=O)C1=C(C)N=c2s/c(=C\c3ccc(OCC(=O)O)cc3)c(=O)n2C1c1ccccc1 (centres undefined), the Potency is reported as inconclusive: 29.1 µM [rising, single point]. With Cc1nn(-c2ccccc2)c(C)c1NC(=O)COC(=O)CCc1ccccc1 the Potency was inconclusive: 29.1 µM [rising, single point]. In the case of Cc1ccc(NC(=O)CSc2nc3c(oc4ccccc43)c(=O)n2Cc2ccco2)cc1, the “activity change, negative = cytotoxicity” value is reported as inactive: 25.5%. In the case of N#CCCSc1ncnc2c1oc1ccccc12, the Potency is reported as active: 11.6 µM. With Cc1cccc(-n2c(C)nc3cc(C(=O)NC4CCCCCC4)ccc32)c1 the “activity change, negative = cytotoxicity” value was inactive: -3.84%. For Cc1ccc(-c2noc(CCC(=O)NCCCN3CCN(c4ccc(F)cc4)CC3)n2)cc1, the Potency was active: 13 µM. With Cc1ccc(S(=O)(=O)NC(C)(C)CSc2nnc(Nc3ccccc3)s2)cc1 the Potency was inconclusive: 25.9 µM [cytotoxic, partial curve, poor fit]. For COc1ccc(S(=O)(=O)N2CCCC(C(=O)Nc3cccnc3)C2)cc1Cl (centres undefined), the Potency was inconclusive: 23.1 µM [cytotoxic, single point]. In the case of CCOC(=O)c1c(NC(=O)Cc2cccs2)sc(C(=O)NC2CCCC2)c1C, the “activity change, negative = cytotoxicity” value is reported as inactive: 10.7%. With CCn1c(CN2CCOCC2)nc2cc(NC(=O)c3ccc([N+](=O)[O-])cc3)ccc21 the Potency was inconclusive: 29.1 µM [cytotoxic, single point]. With Cc1cc(NC(=O)COC(=O)c2ccc(S(=O)(=O)N3CCCc4ccccc43)cc2)no1 the Potency was inconclusive: 6.51 µM [cytotoxic, full curve, poor fit]. In the case of C#CCN1C(=O)C2(OCCO2)c2ccccc21, the “activity change, negative = cytotoxicity” value is reported as inactive: 15.9%. For CC1(C(=O)Nc2cccc(Oc3ccccc3)c2)CCN1Cc1ccccc1Cl (centres undefined), the “activity change, negative = cytotoxicity” value was inactive: -7.82%. In the case of c1cc2c(cc1C1CCCCC1)c1c3n2CCN=C3CCC1, the Potency is reported as inconclusive: 29.1 µM [cytotoxic, single point]. For O=C(CSc1nnc(NC(=O)C2CC2)s1)Nc1ccc(F)cc1, the Potency was inconclusive: 20.6 µM [cytotoxic, single point]. With Cc1cc(C)c(C(=O)C(C)OC(=O)c2ccc(Cl)nc2)cc1C (centres undefined) the “activity change, negative = cytotoxicity” value was inactive: -18.1%. For CCC(=O)N1CCN(c2ccc(Cl)cc2NC(=O)Cc2ccc(Cl)cc2)CC1, the Potency was active: 3.66 µM. For CC(C)(C)c1cc(NC(=O)c2cccnc2)no1, the Potency was inconclusive: 29.1 µM [cytotoxic, single point]. For CC(C)C[C@H]1CN(CCCC[C@@H]2CNC(=O)C(=O)N2Cc2ccccc2)C(=O)C(=O)N1CCC1CCCCC1, the “activity change, negative = cytotoxicity” value was inactive: 0%. In the case of COc1ccccc1NS(=O)(=O)c1cc(NC(=O)C2CCCC2)ccc1N1CCOCC1, the Potency is reported as inconclusive: 8.2 µM [cytotoxic, partial curve]. For COc1ccc(O)c(/C=N/NC(=O)CCC(=O)Nc2cccc(C)c2)c1, the Potency was inconclusive: 16.4 µM [cytotoxic, single point]. With NC(=O)C(C(=O)/C=C/c1ccc(Cl)cc1)=C1SCCS1 the Potency was active: 6.51 µM. For CCOC(=O)N1CCC(N2CCCC(C(=O)c3ccccc3OC)C2)CC1 (centres undefined), the Potency was inconclusive: 20.6 µM [cytotoxic, single point]. With CCN(CC(=O)Nc1ccc(NC(C)=O)cc1)C(=O)c1cc(-c2ccccc2Cl)nc2ccccc12 the “activity change, negative = cytotoxicity” value was inactive: -17.9%. In the case of Nc1nc(SCc2cccnc2)c2ncn(C3OC(CO)C(O)C3O)c2n1 (centres undefined), the “activity change, negative = cytotoxicity” value is reported as inactive: 2.33%. With O=C(N/N=C\c1cc(Cl)ccc1O)c1ccc(S(=O)(=O)N2CCCCC2)cc1 the Potency was inconclusive: 9.2 µM [cytotoxic, partial curve]. In the case of CCOC(=O)CC(=O)CSc1ncnc2c1nnn2-c1ccccc1, the Potency is reported as inconclusive: 20.6 µM [rising, single point]. For O=C(Cc1ccc(S(=O)(=O)N2CCOCC2)s1)Nc1ccc(Br)c(C(F)(F)F)c1, the Potency was inconclusive: 29.1 µM [cytotoxic, single point]. In the case of O=C(NCc1cccnc1)NC1(C(F)(F)F)Oc2ccc(Cl)cc2O1 (centres undefined), the Potency is reported as active: 3.26 µM. For N#CC1=C(SCc2ccccc2)NC(=O)CC1c1cccc(O)c1 (centres undefined), the Potency was inconclusive: 20.6 µM [cytotoxic, single point]. In the case of CCN(CC)c1ccc(-c2n[nH]c(=S)n2-c2ccccc2)cc1, the Potency is reported as active: 23.1 µM. In the case of CCNc1nc(NC(C)(C)C)nc(N2CCCC2)n1, the Potency is reported as inconclusive: 18.4 µM [cytotoxic, partial curve, poor fit]. For O=C(O)c1ccc(NS(=O)(=O)c2ccc(Cl)c(C(=O)Nc3ccccc3[N+](=O)[O-])c2)cc1, the “activity change, negative = cytotoxicity” value was inactive: 0%. In the case of C=CCn1c(N)c(C(=O)OCC)sc1=S, the Potency is reported as inconclusive: 16.4 µM [cytotoxic, partial curve, poor fit]. For O=C(O)Cc1c[nH]c2ccccc12, the “activity change, negative = cytotoxicity” value was inactive: -19.4%. With Nn1c(SCC(=O)Nc2cccc(C(F)(F)F)c2)nncc1=O the Potency was inconclusive: 9.2 µM [rising, partial curve, poor fit].
